For at least one compound, name, drawing or mass did not settle the structure. Positions of bridges follow the written chain, without caps; N, C: chain ends. Non-standard residues stand in square brackets, D forms with d. Residues, ends and D or L forms follow the SMILES beside them. Sar = CNCC(=O)O
Columns and labels:
Assay type in all cases: cell-based
human V2 receptor = biological target: T1, human V2 receptor (Homo sapiens, UniProt P30518); assay: Calcium flux assay (FLIPR), agonist mode, CHO cells expressing human V2 + Gqs5; conditions: CHO cells stably expressing human V2 + chimeric Gqs5, read-out: hV2 EC50
T1 construct: expressed in transfected cells
Excerpt: (§1) Chines Hamster Ovary (CHO) cells were transfected with expression plasmids encoding either the human V1a, the human Oxytocin (OTR) or the humanV2 receptor, the later in combination with the chimeric Gqs5 G protein to redirect the signal to Calcium flux. Stable cells were cloned by limiting dilution to yield monoclonal cell lines expressing either human V1a, human V2+Gqs5 or human OTR receptors and selected based on functional responses detected on a fluorometric imaging plate reader (FLIPR) detecting Calcium flux in the cell after receptor activation. […]
(§2) On the afternoon before the assay, cells were plated at a density of 50,000 cells/well into black 96 well plates with clear bottoms to allow cell inspection and fluorescence measurements from the bottom of each well. […]
(§3) Each 96 well plate containing dye-loaded cells was placed into the FLIPR machine and the laser intensity set to a suitable level to detect low basal fluorescence. To test compounds as agonists, 25 μl diluted compound was added to the plate 10 seconds into the fluorescent measurements and fluorescent response was recorded for 5 minutes. The fluorescence data was normalized to the endogenous full agonist dose-response set at 100% for the maximum response and 0% for the minimum. […]

The chains behind the UniProt entries cited, without tags or fusion partners.
UniProt P30518, whole entry: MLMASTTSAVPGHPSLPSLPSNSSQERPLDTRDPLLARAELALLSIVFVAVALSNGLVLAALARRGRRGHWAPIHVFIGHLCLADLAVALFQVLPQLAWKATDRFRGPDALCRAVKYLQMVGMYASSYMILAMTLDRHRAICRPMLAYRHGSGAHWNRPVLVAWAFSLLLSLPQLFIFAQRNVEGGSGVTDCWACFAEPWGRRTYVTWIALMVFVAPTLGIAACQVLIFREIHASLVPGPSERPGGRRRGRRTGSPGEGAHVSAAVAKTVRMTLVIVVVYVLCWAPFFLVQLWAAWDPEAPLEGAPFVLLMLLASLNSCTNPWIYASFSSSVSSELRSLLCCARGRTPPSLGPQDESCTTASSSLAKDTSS
UniProt P37288, whole entry: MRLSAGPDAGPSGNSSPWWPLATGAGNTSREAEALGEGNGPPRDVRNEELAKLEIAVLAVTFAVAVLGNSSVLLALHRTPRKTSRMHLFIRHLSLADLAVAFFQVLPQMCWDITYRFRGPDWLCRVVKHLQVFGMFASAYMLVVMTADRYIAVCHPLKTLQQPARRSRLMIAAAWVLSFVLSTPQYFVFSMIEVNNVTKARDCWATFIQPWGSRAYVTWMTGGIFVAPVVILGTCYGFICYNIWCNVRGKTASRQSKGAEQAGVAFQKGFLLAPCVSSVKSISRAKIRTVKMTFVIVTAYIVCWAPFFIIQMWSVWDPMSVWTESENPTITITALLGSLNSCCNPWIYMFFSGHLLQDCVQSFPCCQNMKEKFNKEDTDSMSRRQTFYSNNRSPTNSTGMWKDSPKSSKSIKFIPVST

human V1a receptor = biological target: T2, human V1a receptor (Homo sapiens, UniProt P37288); assay: Calcium flux assay (FLIPR), agonist mode, CHO cells expressing human V1a; conditions: CHO cells stably expressing human V1a, read-out: hV1a EC50
T2 construct: expressed in transfected cells
Excerpt: as §1, §2, §3

[1] = biological target: T3, human Oxytocin (OTR) receptor (Homo sapiens, UniProt P30559); assay: Calcium flux assay (FLIPR), agonist mode, CHO cells expressing human OTR; conditions: CHO cells stably expressing human OTR, read-out: hOT EC50
T3 construct: expressed in transfected cells
T3 sequence (P30559 1-389): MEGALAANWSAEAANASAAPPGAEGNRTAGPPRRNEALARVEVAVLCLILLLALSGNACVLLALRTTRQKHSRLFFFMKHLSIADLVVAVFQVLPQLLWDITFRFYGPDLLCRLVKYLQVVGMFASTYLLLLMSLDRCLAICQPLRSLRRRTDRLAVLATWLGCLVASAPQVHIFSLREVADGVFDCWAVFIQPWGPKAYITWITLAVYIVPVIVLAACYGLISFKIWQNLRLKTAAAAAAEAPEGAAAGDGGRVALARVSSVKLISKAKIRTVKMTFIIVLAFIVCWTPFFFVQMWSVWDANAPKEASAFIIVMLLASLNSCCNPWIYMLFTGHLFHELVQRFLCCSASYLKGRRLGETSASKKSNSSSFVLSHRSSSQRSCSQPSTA
Excerpt: Chines Hamster Ovary (CHO) cells were transfected with expression plasmids encoding either the human V1a, the human Oxytocin (OTR) or the humanV2 receptor, the later in combination with the chimeric Gqs5 G protein to redirect the signal to Calcium flux. Stable cells were cloned by limiting dilution to yield monoclonal cell lines expressing either human V1a, human V2+Gqs5 or human OTR receptors and selected based on functional responses detected on a fluorometric imaging plate reader (FLIPR) detecting Calcium flux in the cell after receptor activation.
as §2, with “well. The density of cells was sufficient to yield a confluent monolayer the next day.” for “well.”
as §3

With `CC[C@H](C)[C@@H]1NC(=O)[C@H](Cc2ccc(O)cc2)NC(=O)CNC(=O)CC[C@@H](C(=O)N(C)CC(=O)N[C@@H](CCSC)C(=O)NCC(N)=O)NC(=O)[C@H](CC(N)=O)NC(=O)[C@H](CCC(N)=O)NC1=O` [Example 35] (GYIQNE[Sar]MG-NH2; lactam N-6) as the compound, how does the EC50 (human V2 receptor) read?
The EC50 was 1.67 µM.

What about the EC50 (human V1a receptor) of the same compound?
Its EC50 is greater than 10 µM.

What about the EC50 [1] of the same compound?
Its EC50 is 0.003 µM.

Reference: US9868766B2, “Peptides as oxytocin agonists” (Hoffmann-La Roche Inc., priority 2012, dated 2018)
